Drawing on PubChem BioAssay AID445 (National Center for Advancing Translational Sciences (NCATS), 2006), this text covers AC50 for 64 molecules.

This is one part of the list. The main result of the screen is listed elsewhere. These columns were measured beside it and carry no call. Compounds called inactive in the main read-out are mostly missing here. Words in brackets tell the shape of the fitted curve; partial curves, single points and poor fits give uncertain potencies.

This assay in a line: IkB Signaling. The settings on record: ABC-DLBCL IkBa-CBG/CBR dual luciferase ratio (green luciferase fused to IkBa over red control in OCI-Ly3 lymphoma cells), 4 h. The method, boiled down: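 Luminescence ratio of IκBα-fused green versus native red beetle luciferase in OCI-Ly3 cells, 4 h post-doxycycline with compound; red signal alone, scaled from basal (0%) to zero light (-100%), flagged nonspecific or cytotoxic effects.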
Where [1] appears, read: measured here: control luc red channel unless noted.

As to `COc1ccc(OC)c(-c2cc(C(=O)Nc3cccc(Cl)c3C)no2)c1`, the AC50 under setting [1] was 15.8 µM [falling, partial curve].
The same measure, in the same setting: under `O=C(CSc1nc(-c2ccccc2)nc2c1CCCC2)c1ccc(F)cc1` stands 39.8 µM [falling, single point].
Still for that read-out and setting: the result for `Cc1ccc2nc(Nc3nc(=O)c4ccccc4n3C)nc(C)c2c1` reads 0.316 µM [falling, full curve]; that for `CCCCN(CC)CCNC(=O)c1cc2c(-c3ccc(Cl)cc3)nn(C)c2s1`, 12.6 µM [falling, partial curve]; that for `O=C(Nc1ccc(Nc2ccccc2)cc1)c1ccco1`, 15.8 µM [falling, single point].
Same read-out and setting: the result for `COc1ccc(S(=O)(=O)N(Cc2ccc(OC)c(OC)c2)Cc2ccco2)cc1` reads 10 µM [falling, partial curve].
As for `Cc1cc(NC(=O)Nc2cccs2)no1`, the AC50 under setting [1] is 3.16 µM [rising, partial curve].
Regarding `O=C(CSc1nc2c(oc3ccccc32)c(=O)n1Cc1ccco1)Nc1cccc(Cl)c1`, under setting [1], the AC50 was 39.8 µM [falling, partial curve].
For `CC1(C)CC(=O)C(C2(O)C(=O)N(Cc3ccccc3)c3ccccc32)CO1` (stereo not given), the AC50 is 20 µM [rising, partial curve] (measured here: IkB-luc green channel) and 0.00316 µM [rising, full curve, poor fit] (measured here: control luc red channel).
Regarding `Cc1cn(C)c(CC(=O)Nc2cccc(Cl)c2C)c1C(=O)O`, the AC50 under setting [1] is 6.31 µM [rising, single point].
On the same count and under the same terms, the result for `C/C(N)=C(/C#N)C(=O)COC(=O)c1cc(C)n(-c2ccc(F)cc2)c1C` reads 39.8 µM [falling, single point].
`Cc1cc(C)cc(NC(=O)CN2C(=O)c3ccccc3Sc3ccc(C(=O)N4CCOCC4)cc32)c1`: the AC50 under setting [1] was 3.98 µM [falling, full curve].
As for `COc1cc2c(cc1NS(=O)(=O)c1cccc(C#N)c1)n(C)c(=O)n2C`, under setting [1], the half-maximal activity concentration (AC50) is 10 µM [rising, partial curve].
Take `Cc1ccc(CNC(=O)c2ccc(CSCc3ccc(Cl)cc3)o2)cc1`: the AC50 under setting [1] was 1 µM [rising, single point].
Same read-out and setting: the result for `O=C(NCc1cccc(F)c1)C1=Cc2cc(Br)ccc2OC1` reads 25.1 µM [falling, single point].
On to `Cc1ccc(-n2ccnc(NCc3ccccc3)c2=O)cc1C`, for which the half-maximal activity concentration (AC50) under setting [1] was 39.8 µM [falling, single point].
For the molecule `CN(C1CCCCC1)S(=O)(=O)c1ccc2c(c1)c(=O)c(C(=O)NCCc1ccc(Cl)cc1)cn2C`, the AC50 under setting [1] is 25.1 µM [falling, partial curve].
Same read-out and setting: under `Cc1ccc(-c2nnc(Nc3cccc(Cl)c3)c3ccccc23)cc1S(=O)(=O)NCC1CCCO1` (stereo not given) stands 7.94 µM [falling, partial curve]; under `Cn1nc(-c2ccc(OCC(=O)Nc3cccnc3)cc2)c2ccccc2c1=O`, 20 µM [falling, partial curve]; under `Nc1nc(-c2ccccc2)cc(-c2ccccc2O)n1`, 10 µM [falling, partial curve].
Same read-out and setting: under `COc1cccc(OCCCCn2c(-c3ccc(Cl)cc3)nc3ccccc3c2=O)c1` stands 20 µM [falling, partial curve].
For `Cc1ccc(-c2onc(C)c2C)cc1S(=O)(=O)NCc1ccco1`, the concentration at half-maximal activity (AC50) under setting [1] was 39.8 µM [falling, partial curve].
For `O=C(c1cccc([N+](=O)[O-])c1)N1c2ncnn2C2(CCCCC2)[C@@H]2CCCC[C@@H]21`, under setting [1], the AC50 was 10 µM [falling, partial curve].
On the same count and under the same terms, under `Cc1ccc(S(=O)(=O)c2cnc(SCC(=O)Nc3ccc4c(c3)OCCO4)[nH]c2=O)cc1` stands 31.6 µM [falling, partial curve]; under `Cc1cc(C(=O)OCc2nnc(-c3ccccc3)o2)c(C)n1-c1ccccc1`, 15.8 µM [falling, partial curve]; under `CCC(OC(=O)c1cc2sccc2n1C)C(=O)NCc1ccco1` (stereo not given), 25.1 µM [falling, partial curve].
Same read-out and setting: under `CC(C)(C)c1ccc(O)c(O)c1` stands 39.8 µM [rising, partial curve] [measured here: IkB-luc green channel].
For the molecule `O=C(CSc1nnc(C2COc3ccccc3O2)o1)N1CCCc2ccccc21` (stereo not given), the AC50 under setting [1] was 15.8 µM [falling, partial curve].
The same measure, in the same setting: under `COc1ccccc1Nc1nn2c(=O)c3ccc(C(=O)NCc4cccs4)cc3nc2s1` stands 6.31 µM [falling, full curve]; under `Cc1ccc2c(=O)c(C(=O)c3ccc(F)cc3)cn(CC(=O)NCc3ccccc3)c2n1`, 39.8 µM [falling, single point].
On the same count and under the same terms, under `COC(=O)c1ccc(C(=O)OC)c(NC(=O)COC(=O)C23CC4CC(CC(O)(C4)C2)C3)c1` stands 25.1 µM [falling, partial curve]; under `COc1ccc(OC)c(S(=O)(=O)NCCc2sc(-c3ccc(C)cc3)nc2C)c1`, 0.1 µM [falling, full curve].
For the molecule `Cc1ccc(C)c(NC(=O)c2ccccc2O)c1`, the half-maximal activity concentration (AC50) under setting [1] was 39.8 µM [falling, single point].
Regarding `COc1ccc(C(=O)Nc2ccc(-c3nc4ncccc4o3)cc2)cc1`, under setting [1], the AC50 was 39.8 µM [falling, single point].
`Cc1cc(Nc2ccc(C)c(C)c2)n2cnnc2n1`: the half-maximal activity concentration (AC50) under setting [1] was 39.8 µM [falling, partial curve].
Still for that read-out and setting: under `CCCN(CCC)C(=O)CSc1nnc2cc(C)c3cc(C)cc(C)c3n12` stands 1 µM [falling, partial curve]; under `Cc1cccc(CN2C(=O)c3ccccc3Sc3ccc(C(=O)N4CCCC4)cc32)c1`, 25.1 µM [falling, single point]; under `COC(=O)c1c(-c2cccs2)csc1NC(=O)c1ccc(Cl)cc1`, 25.1 µM [falling, partial curve].
Consider `COCCN1C(=O)c2[nH]nc(-c3ccccc3O)c2C1c1ccc(OCc2ccccc2)c(OC)c1` (stereo not given), for which the half-maximal activity concentration (AC50) under setting [1] was 25.1 µM [falling, single point].
As for `CCc1ccc(N(CC)C(=O)c2ccc3c(=O)n4c(nc3c2)CCCCC4)cc1`, under setting [1], the AC50 was 12.6 µM [falling, partial curve].
Take `CCN(CC)c1ccc(-c2nn3c(-c4ccccc4OC)nnc3s2)cc1`: the AC50 under setting [1] was 12.6 µM [falling, partial curve, poor fit].
`CCC(=O)Nc1cc(NC(=O)CSc2ncc(-c3ccc(F)cc3)n2Cc2ccco2)ccc1C`: the half-maximal activity concentration (AC50) under setting [1] is 0.398 µM [falling, full curve].
On to `Cc1ccc(NC(=O)c2ncn(-c3ccccc3)n2)cc1Cl`, for which the AC50 under setting [1] is 3.98 µM [falling, full curve].
Same read-out and setting: the result for `Cc1nc(-n2nc(C)c(Cc3ccccc3Cl)c2C)sc1C(=O)N1CCCCC1C` (stereo not given) reads 20 µM [falling, partial curve].
The same measure, in the same setting: the result for `Cc1ccc(NC(=O)CS(=O)(=O)c2nc(-c3ccc(C)cc3)cn2-c2ccc(C)cc2)cc1` reads 0.0398 µM [falling, full curve, poor fit]; that for `N#CCSc1nc2[nH]ncc2c(=O)n1-c1ccccc1Br`, 20 µM [rising, partial curve]; that for `O=S(=O)(c1ccc2ccccc2c1)n1nc(-c2ccco2)nc1NCc1ccc(F)cc1`, 15.8 µM [falling, partial curve].
On the same count and under the same terms, under `Cc1cc(NC(=O)CCCn2c(C)c3cnn(-c4ccccc4)c(=O)c3c2C)ccc1Br` stands 15.8 µM [falling, partial curve].
With `Cc1cc(C)cc(C(=O)N(Cc2nc(-c3ccc(Cl)cc3)no2)C(C)C)c1`, the concentration at half-maximal activity (AC50) under setting [1] was 7.94 µM [falling, full curve].
Still for that read-out and setting: the result for `CCOc1ccccc1NC(=O)CN1C(=O)CC(c2ccco2)Sc2ccccc21` (stereo not given) reads 31.6 µM [falling, partial curve]; that for `COc1ccc(N2CCN(C(=O)c3cn(C4CCCC4)c(=O)c4c3c3ccccc3n4C)CC2)cc1`, 12.6 µM [falling, partial curve].
Still for that read-out and setting: the result for `COC(=O)c1ccc(OCC(O)Cn2cnc3cc(C)c(C)cc32)cc1` (stereo not given) reads 20 µM [falling, partial curve, poor fit]; that for `CCN(C(=O)CSc1ncc(S(=O)(=O)c2ccc(C)c(Cl)c2)c(=O)[nH]1)c1cccc(C)c1`, 25.1 µM [falling, partial curve].
For the molecule `COc1ccc(NC(=O)CC2SC(=Nc3ccccc3)NC2=O)c(OC)c1` (stereo not given), under setting [1], the concentration at half-maximal activity (AC50) is 7.94 µM [falling, partial curve].
Still for that read-out and setting: the result for `COc1ccc(NC(=O)Nc2cccc3cccnc23)cc1` reads 12.6 µM [falling, partial curve]; that for `COc1ccc(OC)c(NC(=O)c2cc3c(s2)-c2ccccc2SC3)c1`, 6.31 µM [falling, partial curve]; that for `Cc1ccc(-n2ncc(C(=O)NC3CCCC3)c2C2CCN(C(=O)OC(C)(C)C)CC2)c(C)c1`, 12.6 µM [falling, partial curve].
On to `Cc1ccc(C)c(NS(=O)(=O)c2ccc3c4c(cccc24)C(=O)N3)c1`, for which, under setting [1], the AC50 is 6.31 µM [falling, full curve].
Still for that read-out and setting: under `COc1ccc(OC)c(Nc2nc3ccccc3n3c(C)nnc23)c1` stands 0.398 µM [falling, full curve, poor fit]; under `Nc1nc(NC(=O)c2ccco2)nn1-c1ccccc1`, 6.31 µM [falling, partial curve].
Same read-out and setting: the result for `O=C(Nc1cc(-c2nc3cc(Cl)ccc3o2)ccc1Cl)c1cccs1` reads 7.94 µM [falling, partial curve]; that for `COc1ccc(COC(=O)c2[nH]c3c(c2C)C(=O)CC(c2ccc(OC)c(OC)c2)C3)cc1` (stereo not given), 3.98 µM [falling, full curve].
Still for that read-out and setting: the result for `C#CC(C)(CC)NC(=O)Cn1nnc(-c2ccc(OCc3ccccc3F)cc2)n1` (stereo not given) reads 3.16 µM [falling, full curve, poor fit]; that for `CCN(CC)C(=O)CSc1nc(-c2ccccc2)cc(-c2ccc(OC)cc2)c1C#N`, 3.98 µM [rising, single point].
